The values below come from paper PMC6952976.

Amino acid sequences for entries named in this document (tags omitted).
UniProt P42930: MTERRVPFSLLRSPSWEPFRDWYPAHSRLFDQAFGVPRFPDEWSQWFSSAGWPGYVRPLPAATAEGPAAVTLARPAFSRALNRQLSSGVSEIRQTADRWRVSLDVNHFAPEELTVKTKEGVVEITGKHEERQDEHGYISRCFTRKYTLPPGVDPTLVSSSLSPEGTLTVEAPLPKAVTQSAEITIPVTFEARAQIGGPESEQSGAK

Assay [1] has as its target T1, adenine nucleotide translocase 1 (rat (endogenous in neonatal rat cardiomyocytes)) (UniProt Q05962).
T1 sequence: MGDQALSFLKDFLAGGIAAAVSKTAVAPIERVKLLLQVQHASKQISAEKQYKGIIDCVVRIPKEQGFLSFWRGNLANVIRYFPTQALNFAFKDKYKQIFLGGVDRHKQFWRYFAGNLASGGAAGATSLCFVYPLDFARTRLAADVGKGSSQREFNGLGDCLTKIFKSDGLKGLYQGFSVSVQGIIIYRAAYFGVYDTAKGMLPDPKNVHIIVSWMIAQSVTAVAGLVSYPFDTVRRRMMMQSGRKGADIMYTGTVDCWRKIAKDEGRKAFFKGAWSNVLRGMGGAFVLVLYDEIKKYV
Kind of assay: condition: only cardiomyocytes kept under hypoxic conditions (24 h, 1% O2); affinity purification with mass spectrometry; ANT-specific antibody precipitates from lysates of hypoxic (24 h, 1% O2) WT or ANT1-TG cardiomyocytes; digestion with trypsin on the beads, LC-ESI-MS/MS.

Assay [2] addresses T1, adenine nucleotide translocase 1 (rat (endogenous in neonatal rat cardiomyocytes)). Briefly: affinity purification with mass spectrometry; ANT-specific antibody precipitates from lysates of normoxic WT or ANT1-TG cardiomyocytes; digestion with trypsin on the beads, LC-ESI-MS/MS; spectral counts of unspecific IgGs subtracted.

These are yes or no findings as the source states them, for the method shown. In cells and extracts the contact can be indirect. These calls come from enrichment with a bait or labelling near it, and not all partners need be listed. For some assays here: No binding means not detected with the bait.

As for “heat shock protein 27 (from UniProt P42930 1-206)”, the binding entry in assay [1] was “no binding”; in assay [2], “binds”.
